According to article PMC3531251:
No constants are given. Whether binding was seen depends on the method and setting. Binding seen in cells or lysates may run through a third protein. Some results given as binding are weak or reduced against the parent protein; the word gives no strength.

Chains of the proteins cited; added tags and fusions are not shown. Lines headed by an entry give the natural chain unless they say otherwise; changes in a name come on top.
UniProt P53035: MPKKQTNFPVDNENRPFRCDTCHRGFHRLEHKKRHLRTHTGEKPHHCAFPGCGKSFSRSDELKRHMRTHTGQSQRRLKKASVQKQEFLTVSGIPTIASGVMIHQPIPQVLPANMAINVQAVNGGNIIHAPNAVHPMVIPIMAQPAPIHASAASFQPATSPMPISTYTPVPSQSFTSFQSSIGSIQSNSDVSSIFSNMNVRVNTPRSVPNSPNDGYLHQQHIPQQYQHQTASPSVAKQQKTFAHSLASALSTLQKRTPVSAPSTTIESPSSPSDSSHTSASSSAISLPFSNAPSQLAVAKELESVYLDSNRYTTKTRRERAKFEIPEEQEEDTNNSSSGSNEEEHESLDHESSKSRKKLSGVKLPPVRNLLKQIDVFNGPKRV
UniProt Q02821: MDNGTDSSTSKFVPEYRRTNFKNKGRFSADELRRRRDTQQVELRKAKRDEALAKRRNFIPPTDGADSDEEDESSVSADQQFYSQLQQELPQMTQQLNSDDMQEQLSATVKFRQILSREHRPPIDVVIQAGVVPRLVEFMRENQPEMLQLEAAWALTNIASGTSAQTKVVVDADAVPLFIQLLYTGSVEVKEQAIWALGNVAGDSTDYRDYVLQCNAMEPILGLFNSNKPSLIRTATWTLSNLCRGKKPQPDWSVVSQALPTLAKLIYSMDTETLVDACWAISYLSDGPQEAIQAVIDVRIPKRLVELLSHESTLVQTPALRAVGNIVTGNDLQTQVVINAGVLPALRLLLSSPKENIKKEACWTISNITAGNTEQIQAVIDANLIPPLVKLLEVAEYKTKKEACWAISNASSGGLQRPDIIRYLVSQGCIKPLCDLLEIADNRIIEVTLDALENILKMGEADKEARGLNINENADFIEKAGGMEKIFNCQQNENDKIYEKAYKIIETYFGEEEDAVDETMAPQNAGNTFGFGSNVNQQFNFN

Tests used:
[1] = target: GST-Mig2 fusion protein (S. cerevisiae) (UniProt P53035); assay: pull-down; GST fusion on glutathione-Sepharose incubated with whole cell extract of W303-1A (high or low glucose) for 1 h at 4°C in PBS; blot with anti-Kap60 or anti-Kap95; only the target purified
[2] = target: GST-Mig2nls1 fusion protein (S. cerevisiae) (UniProt P53035); assay: as above
[3] = target: Kap60 (importin-α), endogenous (S. cerevisiae (endogenous in yeast extract)) (UniProt Q02821); assay: co-IP; whole cell extracts of yeast grown in high glucose or shifted to low glucose for 1 h; immunoprecipitated with polyclonal anti-Kap60 or anti-Kap95 and protein A-Sepharose, washed with PBS plus 0.5% deoxycholate; blot with anti-GFP

Substance | binding [1] | binding [2] | binding [3]
Kap60 (importin-α), endogenous (from UniProt Q02821 1-542) | binds | binds | 
Mig2-GFP (from UniProt P53035 1-382) |  |  | binds
